Data as given in PubChem BioAssay AID602196 (INSERM, 2012).

- Purpose: 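Knock-downs that protect lung cancer cells from cisplatin or sensitise them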
- System: human A549 lung cancer cells
- Knock-down reagent: siRNA pair against human genes
- Timing: 48 h transfection before cisplatin; time from cisplatin to read-out not stated
- Conditions: cisplatin at a dose killing half of control-siRNA cells; exact dose and duration not given
- Measured: 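Shift in cisplatin death relative to control siRNA, from -50 (all cells die) to +50 (no cells die); siRNAs harmful on their own scored 0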
- Scale: two-siRNA summed score (-2 to +2): higher = both siRNAs protect from cisplatin killing; -2 means both sensitise
- Call rule: 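siRNAs harmful alone (LDH or WST-1) get 0; others get +1 for less and -1 for more cisplatin killing; genes are active when the two siRNAs give the same sign, summing to ±2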
- Meaning of the calls: active = both siRNAs shift cisplatin killing the same way; inactive = no consistent shift, or siRNA harmful alone
Shown is an unselected part of about 23,000 reagents. 455 of them (2%) were called active. 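Active includes both protection and sensitisation; some change values fall well beyond the stated -50 to +50 range.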 Unmarked entries are inactive. The numbers tell different reagents against one gene apart. Further read-outs or replicates are left out here. Not given: the amount of reagent.

Depletion of ADM2 resulted in: two-siRNA summed score (-2 to +2) = 1. OR4D5 gave two-siRNA summed score (-2 to +2) = 0. Against RPL23AP32, the values are two-siRNA summed score (-2 to +2) = -1. AHSG gave two-siRNA summed score (-2 to +2) = 0. CASP6 gave two-siRNA summed score (-2 to +2) = 0. Silencing of TSSK6 came out at: two-siRNA summed score (-2 to +2) = 2 (active).

Depletion of GPR88 came out at: two-siRNA summed score (-2 to +2) = 0. UTP14A gave two-siRNA summed score (-2 to +2) = 0. SLC3A2 #1 showed two-siRNA summed score (-2 to +2) = 0. Against SLC3A2 #2, the entry reads two-siRNA summed score (-2 to +2) = 0. After knock-down of NEIL1, the screen gave two-siRNA summed score (-2 to +2) = 0. After knock-down of COXFA4, the record shows two-siRNA summed score (-2 to +2) = 0.

Depletion of BCAR1 came out at: two-siRNA summed score (-2 to +2) = -1. With knock-down of LOC400263, the record shows two-siRNA summed score (-2 to +2) = 0. CSNK1A1P1 gave two-siRNA summed score (-2 to +2) = 1. Knock-down of STXBP1 gave: two-siRNA summed score (-2 to +2) = 1. Depletion of PUSL1 resulted in: two-siRNA summed score (-2 to +2) = 0. Silencing of GMCL1 resulted in: two-siRNA summed score (-2 to +2) = 0.

Against SLCO6A1 the deposit lists two-siRNA summed score (-2 to +2) = 0. For LOC440534 the deposit lists two-siRNA summed score (-2 to +2) = 0. Silencing of ZMYND11 resulted in: two-siRNA summed score (-2 to +2) = -1.

A portion taken from the entries so far:
SLC3A2 #1 — two-siRNA summed score (-2 to +2) = 0
SLC3A2 #2 — two-siRNA summed score (-2 to +2) = 0
NEIL1 — two-siRNA summed score (-2 to +2) = 0
